Assay results: PubChem BioAssay AID504847 (National Center for Advancing Translational Sciences (NCATS), 2011)
In all, about 400,000 compounds went through this assay and about 3,700 (0.93%) were called active. This list was built around the results that the source calls inconclusive (neither active nor inactive); the mix of calls is not that of the screen. The call rests on the fitted dose curve; in most records, active means well fitted inhibition curve with a large enough effect; inconclusive means small, poorly fitted or top-dose-only effect, or another doubt; inactive means no such curve, though single readings can be large or run the other way. Potencies beside an inconclusive call are fits to weak or partial responses and may not hold up. The source holds several records for some structures; these can differ, active in one and inactive in another. Where a SMILES comes first, the peptide text is derived from it. [ ]: non-standard residue; d: D form. The star is where a group is joined. ξ: configuration not given here. Cbz = O=C(OCc1ccccc1)*; ξP = O=C(O)C1CCCN1

By UniProt entry, the sequences of proteins in these tests, tags left out.
UniProt P11473, whole entry, looked up: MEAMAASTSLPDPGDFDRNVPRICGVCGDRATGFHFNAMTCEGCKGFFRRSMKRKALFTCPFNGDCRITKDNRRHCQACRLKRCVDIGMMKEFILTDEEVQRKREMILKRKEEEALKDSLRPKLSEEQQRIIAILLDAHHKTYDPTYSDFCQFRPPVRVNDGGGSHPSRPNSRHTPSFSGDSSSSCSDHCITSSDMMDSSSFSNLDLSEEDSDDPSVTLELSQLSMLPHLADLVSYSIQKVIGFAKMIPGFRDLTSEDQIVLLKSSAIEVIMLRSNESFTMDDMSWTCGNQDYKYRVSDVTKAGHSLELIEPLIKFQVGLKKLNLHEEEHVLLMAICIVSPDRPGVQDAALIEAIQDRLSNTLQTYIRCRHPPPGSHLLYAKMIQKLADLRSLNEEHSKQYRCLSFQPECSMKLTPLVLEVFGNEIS

biological target: Vitamin D3 receptor (Homo sapiens) (UniProt P11473); assay: Inhibitors of the vitamin D receptor (VDR): qHTS; settings: VDR-SRC2-3 peptide fluorescence polarization, 2 h; max response, negative = inhibition: hits give low values
How it was run: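 Two reagent solutions held at 4 deg C in the dark were dispensed, compounds pinned at 23 nl, and the mixture incubated 2 h at room temperature. Read-out: fluorescence polarization of VDR–SRC2-3 peptide binding.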
On the % scale 0 is the no-effect control and ±100 the full control effect; potency means the concentration at half of the fitted maximal effect.

`C#CCOc1ccc(/C=C2/C(=O)ON=C2C)cc1OCC` was tested. Which Potency did it give?
Its Potency is inconclusive: 56.2 µM [inhibitor, partial curve, poor fit].

`C[C@H](NC(c1cccc2nc(O)c(O)nc12)P(=O)(O)O)c1ccc(Br)cc1` (stereo partly specified) was tested. Which max response, negative = inhibition did it give?
Its max response, negative = inhibition is inactive: 18.4%.

How did the Potency turn out when `O=C(/C=C/c1cn(-c2ccccc2)nc1-c1cccnc1)c1ccco1` was run?
The Potency was active: 50.1 µM.

With `COc1ccc(CNc2ncnc3nc[nH]c23)cc1OC` as the compound, how does the Potency read?
Its Potency is inconclusive: 0.631 µM [inhibitor, partial curve, poor fit].

With `COC(=O)c1ccccc1NC(=S)NC(=O)c1ccc2c(c1)OCO2` as the compound, how does the Potency read?
The Potency was inconclusive: 89.1 µM [inhibitor, single point].

With `CCn1c(SCC(=O)N2c3ccccc3Sc3ccccc32)nnc1-c1ccco1` as the compound, how does the max response, negative = inhibition read?
The max response, negative = inhibition was inactive: -21.2%.

`CCCCn1c(N)c(N(CC(C)C)C(=O)CSc2nn(-c3ccc(F)cc3)c(=S)s2)c(=O)[nH]c1=O` was tested. Which max response, negative = inhibition did it give?
The max response, negative = inhibition was inactive: 1.13%.

Which Potency does the source give for `COc1ccc(OCCN(C)Cc2c(O)ccc3ccccc23)cc1` here?
The Potency was inconclusive: 15.8 µM [inhibitor, full curve, poor fit].

For `O=C(N/N=C\C=C\c1ccco1)c1cncc(Br)c1`, which Potency is on record?
The Potency was inconclusive: 70.8 µM [inhibitor, partial curve, poor fit].

How did the max response, negative = inhibition turn out when `O=C(NC(c1ccccc1)C(Cl)Cl)c1ccccc1` (stereo unspecified) was run?
Its max response, negative = inhibition is inactive: 5.46%.

Which Potency does the source give for `CCN1CSC(=S)N(Cc2ccc(OC)cc2)C1` here?
Its Potency is inconclusive: 100 µM [inhibitor, single point].

For `O=C(O)c1cccc(S(=O)(=O)NCCc2ccccc2)c1`, which max response, negative = inhibition is on record?
The max response, negative = inhibition was inactive: -13.8%.

How did the max response, negative = inhibition turn out when `O=C(O/N=C\c1ccc(N2CCCCC2)c([N+](=O)[O-])c1)c1cccc(Cl)c1` was run?
The max response, negative = inhibition was inactive: -9.29%.

How did the Potency turn out when `CCOc1ccc(-c2nnc(-c3ccncc3)o2)cc1` was run?
Its Potency is active: 70.8 µM.

Which Potency does the source give for `Cc1ccccc1NC(=O)C1CCCN(S(=O)(=O)c2ccc(-n3cnnn3)cc2)C1` (stereo unspecified) here?
The Potency was inconclusive: 12.6 µM [inhibitor, partial curve, poor fit].

For `O=C(/C=C/c1ccc2c(c1)OCO2)c1cccnc1`, which Potency is on record?
Its Potency is inconclusive: 50.1 µM [inhibitor, partial curve].

`CCCCN(C(=O)CSc1nc2ccccc2s1)c1c(N)n(CCCC)c(=O)[nH]c1=O` was tested. Which Potency did it give?
The Potency was inconclusive: 70.8 µM [inhibitor, single point].

For `COc1ccccc1NC1=C(N2CCCCC2)C(=O)c2ccccc2C1=O`, which Potency is on record?
The Potency was inconclusive: 79.4 µM [inhibitor, partial curve, poor fit].

`COc1ccc(Nc2cc(C)c3c(O)cccc3n2)cc1` was tested. Which Potency did it give?
Its Potency is inconclusive: 17.8 µM [inhibitor, partial curve].

For `CNC(=S)Nc1cccc(Cl)c1C`, which max response, negative = inhibition is on record?
The max response, negative = inhibition was inactive: -17.8%.

For `COc1ccc2sc(SCCCS(=O)(=O)O)[n+](CCCS(=O)(=O)[O-])c2c1`, which Potency is on record?
Its Potency is inconclusive: 63.1 µM [inhibitor, partial curve, poor fit].

Which Potency does the source give for `CCc1cccc(CC)c1NC(=O)CSc1nnc(C2CC2)n1C` here?
The Potency was active: 89.1 µM.

For `O=C(/C=C/Sc1ccccc1)c1ccc(Cl)cc1`, which Potency is on record?
The Potency was active: 56.2 µM.

`Cc1ccc(-c2nc(C)sc2CC(=O)OCC(=O)Nc2ccc(F)c(Cl)c2)cc1` was tested. Which Potency did it give?
Its Potency is inconclusive: 100 µM [inhibitor, single point].

How did the max response, negative = inhibition turn out when `Cc1ccc(CNC(=O)Cn2c(=O)cc(C)c3c(C)nn(-c4cccc(F)c4)c32)cc1` was run?
Its max response, negative = inhibition is inactive: 11.9%.

How did the Potency turn out when `CCC(C)NC(=O)CSc1nc2c(sc(=S)n2-c2cc(Cl)ccc2OC)c(=O)[nH]1` (stereo unspecified) was run?
Its Potency is inconclusive: 79.4 µM [inhibitor, partial curve, poor fit].

How did the max response, negative = inhibition turn out when `CCOc1ccccc1CN1CCc2nc(N3CCN(C)CC3)ncc2C1` was run?
Its max response, negative = inhibition is inactive: 7.82%.

How did the Potency turn out when `O=[N+]([O-])c1ccc(/C=C2\CCC(C3=CCCC3)=C2N2CCOCC2)cc1` was run?
Its Potency is inconclusive: 79.4 µM [inhibitor, partial curve, poor fit].

With `O=C(NCCc1ccco1)c1cc(COc2cccc(C(F)(F)F)c2)on1` as the compound, how does the Potency read?
Its Potency is inconclusive: 79.4 µM [inhibitor, partial curve, poor fit].

Which Potency does the source give for `c1ccc2c(N3CCNCC3)nc(-c3ccoc3)nc2c1` here?
Its Potency is inconclusive: 35.5 µM [inhibitor, full curve, poor fit].

How did the Potency turn out when `CCOc1ccc2c(c1)C(C)=CC(C)(C)N2` was run?
The Potency was active: 44.7 µM.

Which Potency does the source give for `COC(=O)/C=C\C(=O)Nc1cccc([N+](=O)[O-])c1` here?
Its Potency is active: 22.4 µM.

For `COc1cc2c(cc1OC)C(C(=O)NC1CC1)C1c3ccccc3CCN1C2=O` (stereo unspecified), which max response, negative = inhibition is on record?
The max response, negative = inhibition was inactive: 8.14%.

How did the Potency turn out when `S=C(Nc1ccccc1)N1N=C(c2cccs2)CC1c1cccs1` (stereo unspecified) was run?
The Potency was active: 79.4 µM.

For `Cc1onc(-c2ccccc2)c1C(=O)NC(=S)Nc1sc2c(c1C#N)CCCC2`, which Potency is on record?
Its Potency is inconclusive: 63.1 µM [inhibitor, partial curve, poor fit].

How did the Potency turn out when `COc1ccc(-c2nc(-c3ccccc3)ncc2S(C)(=O)=O)cc1` was run?
The Potency was inconclusive: 89.1 µM [inhibitor, single point].

How did the max response, negative = inhibition turn out when `O=C(O)c1ccc(CSc2nnc(-c3cccnc3)n2-c2ccc(Br)cc2)cc1` was run?
The max response, negative = inhibition was inactive: 16.8%.

How did the max response, negative = inhibition turn out when `O=C(O)CSc1cc(C(=O)c2ccccc2O)cn2c(=O)c3c(-c4ccccc4)csc3nc12` was run?
Its max response, negative = inhibition is inactive: -16.9%.

`O=C(CCC(=O)N/N=C/c1cc(Cl)cc(Cl)c1O)NCc1ccccc1` was tested. Which Potency did it give?
The Potency was inconclusive: 56.2 µM [inhibitor, partial curve, poor fit].

For `O=C(O)CNC(=O)C1CCCN1C(=O)CNC(=O)OCc1ccccc1` (stereo not drawn) (Cbz-Gly-[ξP]-Gly-OH), which Potency is on record?
The Potency was inconclusive: 89.1 µM [inhibitor, partial curve, poor fit].

How did the Potency turn out when `C=CCn1c(C)cc(C(=O)COC(=O)c2ccc3c(c2)NC(=O)CS3)c1C` was run?
The Potency was inconclusive: 50.1 µM [inhibitor, partial curve, poor fit].

`CCCc1ccc(S(=O)(=O)N2CCC(c3nnc(-c4cccc(C)c4)o3)CC2)cc1` was tested. Which Potency did it give?
The Potency was inconclusive: 79.4 µM [inhibitor, partial curve, poor fit].

`CCn1c(=O)c2cc(C(=O)NCCCN3CCN(c4ccc(F)cc4)CC3)sc2c2ccccc21` was tested. Which max response, negative = inhibition did it give?
Its max response, negative = inhibition is inactive: -13.5%.

For `COc1ccc(C)cc1NC(=O)c1c2c(nc3ccccc13)C(=O)N(C1CCCCC1)C2`, which max response, negative = inhibition is on record?
The max response, negative = inhibition was inactive: 1.01%.

Which Potency does the source give for `CC(C)N1C/C(=C/c2cccnc2)C(=O)/C(=C/c2cccnc2)C1` here?
The Potency was inconclusive: 79.4 µM [inhibitor, partial curve, poor fit].

For `CCn1c(=O)cc(OCC(=O)N(C)c2ccc(OC)cc2)c2ccccc21`, which Potency is on record?
The Potency was inconclusive: 100 µM [inhibitor, single point].

Which Potency does the source give for `O=C(NCCCN1CCc2ccccc2C1)Nc1ccc(Br)cc1` here?
Its Potency is inconclusive: 35.5 µM [inhibitor, single point].

With `CCCC(C)c1nnc(NC(=O)C2CC(=O)N(CCc3ccc(F)cc3)C2)s1` (stereo unspecified) as the compound, how does the Potency read?
Its Potency is inconclusive: 79.4 µM [inhibitor, partial curve, poor fit].

Which Potency does the source give for `O=C(CCSc1ccc(Cl)cc1)c1ccco1` here?
Its Potency is inconclusive: 100 µM [inhibitor, single point].

Which Potency does the source give for `COc1cccc(/C=C2\C(=O)N(c3cccc(C)c3)C(=O)c3ccccc32)c1` here?
The Potency was inconclusive: 56.2 µM [inhibitor, partial curve, poor fit].

For `COc1ccccc1OCCNc1nc2c(c(=O)n(C)c(=O)n2C)n1C`, which Potency is on record?
Its Potency is inconclusive: 39.8 µM [inhibitor, single point].

For `CC(C)CC1CC(C)(c2csc(NNC(=O)c3ccccc3)n2)OC1=O` (stereo unspecified), which Potency is on record?
Its Potency is inconclusive: 70.8 µM [inhibitor, partial curve, poor fit].

With `C=CCc1cc(OC)ccc1OCCCCn1cncn1` as the compound, how does the max response, negative = inhibition read?
Its max response, negative = inhibition is inactive: -9.1%.

How did the Potency turn out when `CCOC(=O)c1scc(-c2ccccc2)c1S(=O)(=O)Nc1ccc(N(C)C)cc1` was run?
Its Potency is active: 20 µM.

Which max response, negative = inhibition does the source give for `CC(C)Cn1c(N)c(C(=O)CSc2ccc3c(c2)OCCO3)c(=O)n(C)c1=O` here?
The max response, negative = inhibition was inactive: -10.6%.

How did the Potency turn out when `COCCN(CCOC)c1nc(N)c2c(N)nc3c(c2c1C#N)CC(=O)N3Cc1ccc(Cl)cc1` was run?
The Potency was inconclusive: 100 µM [inhibitor, single point].

How did the Potency turn out when `Cc1c(NC(=O)CN2CCN(c3ccc([N+](=O)[O-])cc3)CC2)c(=O)n(-c2ccccc2)n1C` was run?
The Potency was inconclusive: 28.2 µM [inhibitor, single point].

With `O=C(NC(=S)Nc1ccccc1N1CCCC1)c1cccs1` as the compound, how does the Potency read?
The Potency was inconclusive: 56.2 µM [inhibitor, partial curve, poor fit].

With `CCCC(=O)Nc1cc(S(=O)(=O)N(CC)CC)ccc1Cl` as the compound, how does the Potency read?
Its Potency is inconclusive: 70.8 µM [inhibitor, partial curve, poor fit].

With `COCCNC(=O)/C(C#N)=C/c1cccc(OCc2ccccc2)c1` as the compound, how does the Potency read?
Its Potency is inconclusive: 56.2 µM [inhibitor, partial curve, poor fit].

How did the Potency turn out when `COc1ccccc1NC(=S)NN=C(C)c1ccccn1` was run?
The Potency was inconclusive: 79.4 µM [inhibitor, single point].

How did the Potency turn out when `Cc1nc(Nc2ccc(Cl)c(Cl)c2)sc1C(=O)Nc1ccccc1` was run?
The Potency was inconclusive: 44.7 µM [inhibitor, partial curve, poor fit].

How did the Potency turn out when `CC1(C)OC(=O)C(=CNNc2c(Cl)cc(Cl)cc2Cl)C(=O)O1` was run?
Its Potency is inconclusive: 89.1 µM [inhibitor, partial curve, poor fit].

With `O=C(NCc1cccnc1)C1c2ccccc2C(=O)N1Cc1ccccc1` (stereo unspecified) as the compound, how does the Potency read?
The Potency was inconclusive: 79.4 µM [inhibitor, partial curve, poor fit].

For `CC(C)Sc1nnc([C@H](Cc2ccccc2)NC(=O)OC(C)(C)C)o1`, which Potency is on record?
Its Potency is inconclusive: 79.4 µM [inhibitor, partial curve, poor fit].

Which Potency does the source give for `O=C(NC1(O)C(=O)c2ccccc2C1=O)c1ccc(C(F)(F)F)cc1` here?
The Potency was active: 1.78 µM.
